The series in a line: Interference with the Fluor de Lys Developer II reaction (deacetylated standard). As to conditions: for Developer II Activity (deacetylated standard 5 μM): compound 10 μM, control 552537.

`Cc1cc(C)nc(SCC(=O)Nc2ncc(Cc3cccc4ccccc34)s2)n1` [Compound 5, SirReal2, reference compound]: the “Developer II Activity (deacetylated standard 5 μM)” value turned out to be 563876 AFU.
The same measure, in the same setting: with `NC(=O)c1ccccc1Nc1cccc(OCCc2ccccc2)c1` [Compound 6, 3′-phenethyloxy-2-anilinobenzamide, reference compound] the figure was 540425 AFU; with `C[C@H](NC(=O)[C@H](CCCCNC(=O)CNC(=O)c1ccccc1Nc1cccc(OCCc2ccccc2)c1)NC(=O)OCc1ccccc1)C(N)=O` [Compound 26], 548908 AFU.
As for `C[C@H](NC(=O)[C@H](CCCCNC(=S)CNC(=O)c1ccccc1Nc1cccc(OCCc2ccccc2)c1)NC(=O)OCc1ccccc1)C(N)=O` [Compound 36], the “inhibition of the developer reaction of the SIRT2 assay” value was “did not inhibit the developer reaction” and the “Developer II Activity (deacetylated standard 5 μM)” value is on record as 550218 AFU.

(Values after paper PMC5628579, “Potent mechanism-based sirtuin-2-selective inhibition by an in situ-generated occupant of the substrate-binding site, “selectivity pocket” and NAD^+-binding site” (Chemical Science, 2017).)
